According to PubChem BioAssay AID2685 (National Center for Advancing Translational Sciences (NCATS), 2010):
The other results are listed elsewhere or left out. Further columns of the screen follow, without active or inactive calls. Most of these compounds were active or inconclusive in the main read-out, so they are no random draw. The note in brackets gives the kind of curve behind each potency; many fits are weak.

Experiment: qHTS Assay for Lipid Storage Modulators in Drosophila S3 Cells;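 on cell number change: cells counted by Cell Tracker Red CMTPX staining in the red channel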
Settings: BODIPY lipid droplet fluorescence, 18-24 h; for cell number change: measured here: cell count max response, cells fed with added oleic acid
Outline: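 Drosophila S3 cells got compounds at several concentrations plus oleic acid (400 uM solution). Laser-scanning cytometry with 488 nm excitation read lipid droplets at 500-530 nm and cells at 575-640 nm. Percent activity was relative to 20 uM Triacsin C.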

[1] = measured here: lipid fluorescence (Fed channel) AC50, cells fed with added oleic acid
[2] = measured here: cell number channel AC50, cells fed with added oleic acid

| Structure (SMILES) | cell number change | AC50 [1] | AC50 [2] |
| --- | --- | --- | --- |
| O=C1CCCC(O)=C1C1C2=C(CCCC2=O)Oc2ccccc21 (stereo not drawn) | -13.5% | 0.116 µM [falling, full curve, poor fit] | – |
| O=C(O)CC(C(=O)O)N1C(=O)/C(=C/C=C/c2ccco2)SC1=S (stereo not drawn) | -19.1% | – | – |
| O=S(=O)(Nc1ccccc1)c1ccc(F)cc1 | -56.4% | – | 29.1 µM [falling, single point] |
| Cc1noc2ncnc(N3CCCCC3)c12 | 19.4% | – | 0.058 µM [rising, partial curve, poor fit] |
| CCCC1(C(=O)OCC)NC(c2ccc(O)cc2)C2C(=O)N(c3ccc4c(c3)OCCO4)C(=O)C21 (stereo not drawn) | – | 20.6 µM [falling, single point] | – |
| O=C(Nc1nnc(S(=O)(=O)N2CCN(c3ccc(F)cc3)CC2)s1)c1ccccc1 | 15.6% | 29.1 µM [rising, single point] | – |
| COC(=O)c1ccccc1NC(=O)C1CC(c2ccccc2O)=NO1 (stereo not drawn) | 5.81% | – | – |
| COc1cc(/C=N/Nc2nc(N3CCCCC3)nc(N3CCCCC3)n2)ccc1OC(=O)c1ccco1 | 111% | 9.2 µM [rising, partial curve] | 0.0651 µM [rising, full curve, poor fit] |
| COC(=O)c1ccc(S(=O)(=O)N2CCCC2)o1 | -25.5% | 29.1 µM [falling, single point] | – |
| C#CCOCCOCCOCCNc1nc(N2CCN(C(=O)CCCCCCCCCCNC(=O)[C@H](CO)n3cc(CCCSC)nn3)CC2)nc(N2CCN(C(=O)CCCCCCCCCCNC(=O)[C@@H]([C@H](C)O)n3cc(C)nn3)CC2)n1 | 12.9% | 4.11 µM [falling, single point] | 6.51 µM [falling, single point] |
| O=C(O)CCc1nn2c3ccccc3n(CCN3CCCCC3)c2nc1=O | – | 6.51 µM [falling, single point] | 6.51 µM [falling, single point] |
| COc1cccc(N2CCN(C(=O)c3cccnc3)CC2)c1 | -34.1% | 4.61 µM [falling, full curve, poor fit] | 3.66 µM [falling, full curve] |
| CCC(CC)C(=O)Nc1ccc(-c2cn3cccnc3n2)cc1 | 10.8% | – | – |
| CCCOc1ccc(C(=O)CCN2CCN(C(=O)OCC)CC2)cc1 | -77.3% | 29.1 µM [falling, single point] | – |
| C=C1Cn2c(nnc2-c2ccc(Cl)cc2)S1 | 17.6% | – | – |
| CCOC(=O)c1c(NC(=O)COC(=O)c2ncc(Cl)c(Cl)c2Cl)sc(C(=O)N(C)C)c1C | 200% | – | 29.1 µM [rising, partial curve] |
| OCCN(Cc1ccccc1)Cc1ccc(Cl)cc1Cl | -28.6% | 23.1 µM [falling, partial curve, poor fit] | – |
| O=c1[nH]c2ccccc2nc1-c1ccc(Cl)cc1 | 14.4% | 5.17 µM [rising, partial curve, poor fit] | – |
| c1csc(-c2nc3ccccn3c2NC2CCCCC2)c1 | 59.7% | 6.51 µM [rising, partial curve, poor fit] | 2.59 µM [rising, full curve] |
| Cc1cc(C)cc(OCC(=O)O/N=C(\N)c2cccnc2)c1 | 22.8% | 4.11 µM [rising, full curve, poor fit] | 2.91 µM [rising, full curve, poor fit] |

| Structure (SMILES) | cell number change | AC50 [1] | AC50 [2] |
| --- | --- | --- | --- |
| O=Cc1ccc(OCc2ccc3ccccc3c2)cc1 | -14.2% | 0.651 µM [falling, single point] | – |
| Cc1cc(NS(=O)(=O)c2ccc(NS(=O)(=O)c3cc(C)c(Cl)cc3Cl)cc2)no1 | 3.41% | 2.91 µM [rising, single point] | 1.46 µM [rising, full curve, poor fit] |
| COc1ccc(-c2cc3ccc(OCC(C)=O)cc3oc2=O)cc1OC | 25.1% | 29.1 µM [rising, single point] | – |
| O=c1c2ccccc2ncn1-c1ccc([N+](=O)[O-])cc1[N+](=O)[O-] | -20.7% | 29.1 µM [falling, single point] | – |
| Cc1ccc2c(c1)CCCN2C(=O)c1ccc2c(c1)OCO2 | 67% | 6.51 µM [rising, partial curve] | 7.31 µM [rising, partial curve] |
| O=C(CNc1ccc2ccccc2c1)N/N=C/c1ccncc1 | – | 0.731 µM [rising, full curve] | – |
| Cc1nc(-c2cccc(NC(=O)c3ccc(-n4cccn4)cc3)c2)cs1 | 11.6% | 25.9 µM [falling, partial curve, poor fit] | – |
| CC(=O)n1cc(C2C(=O)CC(C)(C)CC2=O)c2ccccc21 | 12.8% | 29.1 µM [falling, single point] | – |
| Cc1ccc(SCC(=O)Nc2ccc(F)cc2[N+](=O)[O-])cc1C | 13.3% | 13 µM [rising, partial curve, poor fit] | – |
| COc1cc(CNCCc2ccc(S(N)(=O)=O)cc2)ccc1OCc1ccc(Cl)cc1 | -12% | 4.61 µM [rising, single point] | – |
| CC12CCC(C/C1=N\N=C1\NC(=O)/C(=C\c3ccc(Cl)cc3)S1)C2(C)C (stereo not drawn) | -46.3% | 16.4 µM [falling, single point] | 16.4 µM [falling, single point] |
| Cc1ccccc1CNC(=O)CN(c1ccccc1Cl)S(C)(=O)=O | -7.77% | 1.03 µM [rising, full curve, poor fit] | – |
| O=C(Cc1ccc(Cl)cc1)SCc1ccccc1 | -1.24% | 0.092 µM [rising, full curve, poor fit] | – |
| Cc1ccc(S(=O)(=O)N/N=C\c2ccccc2OCc2ccccc2)cc1 | 25.3% | 25.9 µM [rising, single point] | – |
| CC(=O)c1cc2c(cc1NC(=O)CN1CCCCC1C)OCO2 (stereo not drawn) | -1.56% | – | 1.84 µM [falling, partial curve] |
| Cc1cc(C)cc(N(CC(=O)NC2CCCCC2)C(=O)CCC(=O)Nc2cc(C)ccn2)c1 | 5.17% | – | – |
| O=C(Cn1cc[n+](Cc2ccccc2)c1)c1ccc([N+](=O)[O-])cc1 | -22.2% | – | – |
| Cc1ccc(-c2nc(SCC(=O)N(C)c3c(N)n(Cc4ccccc4)c(=O)[nH]c3=O)n[nH]2)cc1 | -1.33% | 20.6 µM [falling, single point] | – |
| COC(=O)c1cccc(NC(=O)CN2CCc3ccccc3C2)c1 | 5.74% | – | – |
| O=c1cc(CSc2ccccn2)nc(N2CCN(c3ccccc3)CC2)[nH]1 | 33.1% | – | 0.58 µM [falling, partial curve] |

| Structure (SMILES) | cell number change | AC50 [1] | AC50 [2] |
| --- | --- | --- | --- |
| COc1ccc(COC(=O)c2nc3nc(C)cc(C)n3n2)cc1F | -9.11% | 13 µM [falling, partial curve, poor fit] | – |
| O=C(NCc1ccc(C(F)(F)F)cc1)C1CC(c2c(Cl)cccc2Cl)=NO1 (stereo not drawn) | -23.6% | 0.259 µM [rising, full curve] | – |
| COc1cccc(/C=N/Nc2ncccc2[N+](=O)[O-])c1OC | -2.12% | 0.291 µM [falling, full curve] | 0.58 µM [falling, full curve, poor fit] |
| Cc1ccccc1C(=O)N1CCC(C(=O)O)CC1 | -14.7% | 25.9 µM [falling, partial curve] | – |
| COc1cccc(NC(=O)Nc2ccccc2C(N)=O)c1 | 0.113% | – | – |
| Cc1cc(C)cc(C(=O)N(c2ccccn2)C(C)c2ccco2)c1 (stereo not drawn) | – | 0.58 µM [falling, single point] | 0.116 µM [falling, full curve, poor fit] |
| CN(C)CCNC(=O)Nc1ccc([N+](=O)[O-])cc1 | -23.5% | – | – |
| CCCc1[nH]nc2c1C(Cc1ccccc1)C(C#N)=C(N)O2 (stereo not drawn) | 2.75% | – | – |
| Cc1cccc(NC(=O)C2CCN(S(C)(=O)=O)CC2)c1C | 25.6% | 29.1 µM [rising, single point] | 0.058 µM [rising, full curve, poor fit] |
| COc1ccccc1C(=O)NCC(=O)N1CCN(S(=O)(=O)c2ccc3c(c2)OCCO3)CC1 | -16.5% | – | 0.164 µM [falling, full curve, poor fit] |
| CC(=O)c1ccccc1NC(=O)CSCc1nc2sc(C)c(C)c2c(=O)[nH]1 | 50% | 32.6 µM [rising, partial curve, poor fit] | 20.6 µM [rising, single point] |
| COc1cccc(CN(C)C(=O)CSCC(=O)Nc2cccc(C)c2)c1OC | -12.8% | 6.51 µM [falling, partial curve, poor fit] | – |
| Cc1cc(NC(=O)COC(=O)[C@H](Cc2c[nH]c3ccccc23)NC(=O)c2ccc(F)cc2)no1 | -7.39% | 0.651 µM [falling, full curve, poor fit] | – |
| COC(=O)C/C=C/[C@@H](C)[C@@H](/C=N/O[C@H](C)c1cn([C@@H]2COC[C@H]2O)nn1)NS(=O)(=O)c1ccc(C)cc1 | – | 1.16 µM [falling, full curve] | – |
| O=C(NC(=S)Nc1ccc(Oc2ccccc2)cc1)c1ccc(Cl)cc1 | 36.7% | 6.51 µM [rising, single point] | – |
| COc1ccc(C(C)=O)cc1COC(=O)CCNS(=O)(=O)c1ccc(C(C)=O)cc1 | 21.7% | 29.1 µM [rising, single point] | – |
| COC(=O)c1ccccc1NC(=S)NC(C)=O | 21% | – | – |
| CCc1ccc(NC(=O)C(C)Sc2ccc(S(=O)(=O)N3CCN(C)CC3)cn2)cc1 (stereo not drawn) | 3.55% | 23.1 µM [falling, single point] | – |

4 entries picked at random from the list so far, as already listed:

| Structure (SMILES) | cell number change | AC50 [1] | AC50 [2] |
| --- | --- | --- | --- |
| O=C(NC(=S)Nc1ccc(Oc2ccccc2)cc1)c1ccc(Cl)cc1 | 36.7% | 6.51 µM [rising, single point] | – |
| COc1cccc(CN(C)C(=O)CSCC(=O)Nc2cccc(C)c2)c1OC | -12.8% | 6.51 µM [falling, partial curve, poor fit] | – |
| Cc1ccccc1C(=O)N1CCC(C(=O)O)CC1 | -14.7% | 25.9 µM [falling, partial curve] | – |
| COc1cccc(NC(=O)Nc2ccccc2C(N)=O)c1 | 0.113% | – | – |
